For one molecule, binding results are on record in publication PMC4869175, “Evidence that phytochrome functions as a protein kinase in plant light signalling” (Nature Communications, 2016).

Results are given in words; binding and its absence hold for the method and conditions named. Some entries that bind do so weakly or less than the wild type. Where a sequence is shown, tags or fusion partners need not be part of it.

The target of experiment [1] is T1, GST/strep-fused Arabidopsis PIF1 (Arabidopsis) (UniProt Q8GZM7).
T1 sequence: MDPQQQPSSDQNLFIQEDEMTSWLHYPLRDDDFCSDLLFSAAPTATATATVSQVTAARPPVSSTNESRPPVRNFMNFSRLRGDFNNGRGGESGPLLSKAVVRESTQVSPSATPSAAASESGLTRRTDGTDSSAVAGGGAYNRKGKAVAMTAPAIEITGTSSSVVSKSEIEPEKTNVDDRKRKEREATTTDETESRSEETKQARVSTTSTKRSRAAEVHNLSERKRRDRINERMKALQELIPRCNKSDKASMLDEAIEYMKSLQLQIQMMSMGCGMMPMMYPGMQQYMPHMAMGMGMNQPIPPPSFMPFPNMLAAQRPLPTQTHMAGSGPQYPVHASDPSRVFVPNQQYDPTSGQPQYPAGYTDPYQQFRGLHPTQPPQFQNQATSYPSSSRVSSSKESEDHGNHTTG
Briefly: pull-down; GST/strep-fused interacting protein (1.0 μg) held on glutathione resin, phytochrome (1.0 μg) in solution, Pr and Pfr forms both tested; 60 min at 4 °C in pull-down buffer (100 mM Tris-HCl pH 7.8, 1 mM EDTA, 150 mM NaCl, 100 μg/ml BSA); western blot with oat22 and anti-GST; both purified. On the technique in general: In western blotting, separated proteins are transferred to a membrane and probed.

In experiment [2] the target is T2, GST/strep-fused PIF7 (UniProt Q570R7).
T2 sequence: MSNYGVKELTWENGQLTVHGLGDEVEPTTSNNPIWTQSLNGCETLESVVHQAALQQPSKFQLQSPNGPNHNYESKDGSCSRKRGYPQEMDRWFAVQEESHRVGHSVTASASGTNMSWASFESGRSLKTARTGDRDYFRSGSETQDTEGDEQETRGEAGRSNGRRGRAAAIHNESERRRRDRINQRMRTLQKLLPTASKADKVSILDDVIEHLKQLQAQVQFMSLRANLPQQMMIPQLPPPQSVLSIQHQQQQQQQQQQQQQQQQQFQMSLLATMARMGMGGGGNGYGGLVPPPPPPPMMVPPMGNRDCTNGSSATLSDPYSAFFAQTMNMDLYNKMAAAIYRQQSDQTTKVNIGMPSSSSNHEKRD
The experiment is described as above.

B1: Avena sativa phytochrome A, full-length wild type (natural protein, UniProt P06593 1-1129, looked up)
chain: MSSSRPASSSSSRNRQSSQARVLAQTTLDAELNAEYEESGDSFDYSKLVEAQRDGPPVQQGRSEKVIAYLQHIQKGKLIQTFGCLLALDEKSFNVIAFSENAPEMLTTVSHAVPSVDDPPRLGIGTNVRSLFSDQGATALHKALGFADVSLLNPILVQCKTSGKPFYAIVHRATGCLVVDFEPVKPTEFPATAAGALQSYKLAAKAISKIQSLPGGSMEVLCNTVVKEVFDLTGYDRVMAYKFHEDDHGEVFSEITKPGLEPYLGLHYPATDIPQAARLLFMKNKVRMICDCRARSIKVIEAEALPFDISLCGSALRAPHSCHLQYMENMNSIASLVMAVVVNENEEDDEAESEQPAQQQKKKKLWGLLVCHHESPRYVPFPLRYACEFLAQVFAVHVNREFELEKQLREKNILKMQTMLSDMLFREASPLTIVSGTPNIMDLVKCDGAALLYGGKVWRLRNAPTESQIHDIAFWLSDVHRDSTGLSTDSLHDAGYPGAAALGDMICGMAVAKINSKDILFWFRSHTAAEIRWGGAKNDPSDMDDSRRMHPRLSFKAFLEVVKMKSLPWSDYEMDAIHSLQLILRGTLNDASKPKREASLDNQIGDLKLDGLAELQAVTSEMVRLMETATVPILAVDGNGLVNGWNQKAAELTGLRVDDAIGRHILTLVEDSSVPVVQRMLYLALQGKEEKEVRFEVKTHGPKRDDGPVILVVNACASRDLHDHVVGVCFVAQDMTVHKLVMDKFTRVEGDYKAIIHNPNPLIPPIFGADEFGWCSEWNAAMTKLTGWNRDEVLDKMLLGEVFDSSNASCPLKNRDAFVSLCVLINSALAGEETEKAPFGFFDRSGKYIECLLSANRKENEGGLITGVFCFIHVASHELQHALQVQQASEQTSLKRLKAFSYMRHAINNPLSGMLYSRKALKNTDLNEEQMKQIHVGDNCHHQINKILADLDQDSITEKSSCLDLEMAEFLLQDVVVAAVSQVLITCQGKGIRISCNLPERFMKQSVYGDGVRLQQILSDFLFISVKFSPVGGSVEISSKLTKNSIGENLHLIDLELRIKHQGLGVPAELMAQMFEEDNKEQSEEGLSLLVSRNLLRLMNGDVRHLREAGVSTFIITAELASAPTAMGQ
modifications: phycocyanobilin chromophore assembled (chromophore-binding site C322)
notes: Avena sativa (oat) phytochrome A, full-length gene AsPHYA; 1129 residues by the printed construct limits (66-1129aa); Used as Pr (far-red irradiated) and Pfr (red irradiated) forms; also called AsphyA; FL-AsphyA; source: phycocyanobilin added in vitro
Consider B1, for which the values for the binding result in experiment [1] and in experiment [2] were “binds” and “binds weakly”, respectively.
